The supplement of paper PMC7752906
Counter-ions that a name gives are not always drawn. Some of the results follow. Single values are uncertain here, since repeats match poorly.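 Test system: Schistosoma mansoni schistosomula, roughly 40 per well, imaged in bright field over time and compared with wells given 0.1% DMSO. Distance read-out: the paper calls a drug a hit when its Mahalanobis distance is at least 2.47, three standard deviations above the DMSO control mean. Degeneracy is the share of worms classified opaque.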

The compounds below were run on Schistosoma mansoni schistosomula (assay: Mahalanobis distance of static-rate-frequency phenotype descriptors from DMSO controls (dimensionless); higher = stronger phenotypic change versus DMSO). Settings: 10 µM; 72 h.

SMILES	Mahalanobis distance
CO/N=C(\C(=O)N[C@@H]1C(=O)N2C(C(=O)O)=C(CSc3nc(=O)c(O)nn3C)CS[C@H]12)c1csc(N)n1 [Ceftriaxone Sodium Trihydrate]	inactive: 2.34
CC(C)(C)NC[C@H](O)COc1nsnc1N1CCOCC1 [Timolol Maleate]	inactive: 1.68
CC(C)(C)NC[C@H](O)COc1nsnc1N1CCOCC1 [Timolol]	inactive: 1.37
NCCCC[C@H](N[C@@H](CCc1ccccc1)C(=O)O)C(=O)N1CCC[C@H]1C(=O)O [Lisinopril]	inactive: 1.88
Nc1nc(Cl)nc2c1ncn2[C@@H]1O[C@H](CO)[C@@H](O)[C@@H]1F [Clofarabine]	inactive: 1.23
O=C1CN2Cc3c(ccc(Cl)c3Cl)N=C2N1 [Anagrelide Hydrochloride]	inactive: 1.47
CC[C@H]1OC(=O)[C@H](C)[C@@H](O[C@H]2C[C@@](C)(OC)[C@@H](O)[C@H](C)O2)[C@H](C)[C@@H](O[C@@H]2O[C@H](C)C[C@H](N(C)C)[C@H]2O)[C@](C)(O)C[C@@H](C)/C(=N\OCOCCOC)[C@H](C)[C@@H](O)[C@]1(C)O [Roxithromycin]	inactive: 1.4
C=C1CC[C@H](O)C/C1=C/C=C1\CCC[C@]2(C)[C@@H]([C@H](C)CCCC(C)(C)O)CC[C@@H]12 [Calcifediol]	inactive: 2.39
CC(=O)N[C@@H](CC(C)C)C(=O)O [Acetyl-l-leucine]	inactive: 1.35
Nc1nc(=O)c2nc(CNc3ccc(C(=O)N[C@@H](CCC(=O)O)C(=O)O)cc3)cnc2[nH]1 [Folic Acid]	inactive: 1.89
CC(C)C[C@H](NC(=O)[C@@H](Cc1c[nH]c2ccccc12)NC(=O)[C@H](Cc1ccc(O)cc1)NC(=O)[C@H](CO)NC(=O)[C@H](Cc1c[nH]c2ccccc12)NC(=O)[C@H](Cc1c[nH]cn1)NC(=O)[C@@H]1CCC(=O)N1)C(=O)N[C@@H](CCCNC(=N)N)C(=O)N1CCC[C@H]1C(=O)NCC(N)=O [Triptorelin]	inactive: 2.08
NC(CO)(CO)CO [Tromethamine]	active: 2.52
CN(C)CCN(Cc1cccs1)c1ccccn1 [Methapyrilene]	inactive: 1.71
NC(=O)N1c2ccccc2C=Cc2ccccc21 [Carbamazepine]	inactive: 1.89
CO[C@H]1/C=C/O[C@@]2(C)Oc3c(C)c(O)c4c(c3C2=O)C2=NC3(CCN(CC(C)C)CC3)NC2=C(NC(=O)/C(C)=C\C=C\[C@H](C)[C@H](O)[C@@H](C)[C@@H](O)[C@@H](C)[C@H](OC(C)=O)[C@@H]1C)C4=O [Rifabutin]	inactive: 2.02
CC(=O)OCC(COC(C)=O)OC(C)=O [Triacetin]	inactive: 1.34
C[C@H]1[C@@H](O)O[C@@H]2O[C@@]3(C)CC[C@H]4[C@H](C)CC[C@@H]1[C@@]24OO3 [Artenimol]	active: 3.6
CCCCCC(C)N (stereo unspecified) [Tuaminoheptane Sulfate]	inactive: 2.26
O=C(CCCN1CC=C(n2c(=O)[nH]c3ccccc32)CC1)c1ccc(F)cc1 [Droperidol]	inactive: 2.39
CCN(CC)CCNC(=O)c1cc(S(C)(=O)=O)ccc1OC [Tiapride]	inactive: 2.14
CCn1cc(C(=O)O)c(=O)c2cnc(N3CCNCC3)nc21 [Pipemidic Acid]	inactive: 1.56
COc1cc2nc(N3CCN(C(=O)c4ccco4)CC3)nc(N)c2cc1OC [prazosin]	inactive: 1.89

Random excerpt: 6 records from the list.
SMILES	Mahalanobis distance
CCCCCC(C)N (stereo unspecified) [Tuaminoheptane Sulfate]	inactive: 2.26
Nc1nc(Cl)nc2c1ncn2[C@@H]1O[C@H](CO)[C@@H](O)[C@@H]1F [Clofarabine]	inactive: 1.23
CN(C)CCN(Cc1cccs1)c1ccccn1 [Methapyrilene]	inactive: 1.71
CO/N=C(\C(=O)N[C@@H]1C(=O)N2C(C(=O)O)=C(CSc3nc(=O)c(O)nn3C)CS[C@H]12)c1csc(N)n1 [Ceftriaxone Sodium Trihydrate]	inactive: 2.34
CC[C@H]1OC(=O)[C@H](C)[C@@H](O[C@H]2C[C@@](C)(OC)[C@@H](O)[C@H](C)O2)[C@H](C)[C@@H](O[C@@H]2O[C@H](C)C[C@H](N(C)C)[C@H]2O)[C@](C)(O)C[C@@H](C)/C(=N\OCOCCOC)[C@H](C)[C@@H](O)[C@]1(C)O [Roxithromycin]	inactive: 1.4
CCN(CC)CCNC(=O)c1cc(S(C)(=O)=O)ccc1OC [Tiapride]	inactive: 2.14

Additional results

SMILES	Mahalanobis distance
NCCS(=O)(=O)O [Taurine]	active: 3.25
CC(=O)N[C@@H](CC(=O)N[C@@H](CCC(=O)O)C(=O)O)C(=O)O [Spaglumic Acid]	inactive: 1.87
Cc1ccc(S(=O)(=O)NC(=O)NN2CC3CCCC3C2)cc1 (stereo unspecified) [Gliclazide]	inactive: 2.26
COc1ccc2[nH]cc(CCNC(C)=O)c2c1 [Melatonin]	active: 3.27
Cc1ccc(C(=O)c2cc(O)c(O)c([N+](=O)[O-])c2)cc1 [Tolcapone]	inactive: 1.44
NC[C@H]1O[C@H](O[C@H]2[C@H](O[C@@H]3O[C@H](CO)[C@@H](O)[C@H]3O)[C@@H](O)[C@H](N)C[C@@H]2N)[C@H](N)[C@@H](O)[C@@H]1O [Ribostamycin Sulfate]	inactive: 1.24
C=CC[C@@H]1/C=C(\C)C[C@H](C)C[C@H](OC)[C@H]2O[C@@](O)(C(=O)C(=O)N3CCCC[C@H]3C(=O)O[C@H](/C(C)=C/[C@@H]3CC[C@@H](O)[C@H](OC)C3)[C@H](C)[C@@H](O)CC1=O)[C@H](C)C[C@@H]2OC [Tacrolimus]	inactive: 2.01
CC(C)N1CCN(c2ccc(OCC3COC(Cn4cncn4)(c4ccc(Cl)cc4Cl)O3)cc2)CC1 (stereo unspecified) [Terconazole]	active: 2.92
CN1C2CCCC1CC(NC(=O)c1nn(C)c3ccccc13)C2 (stereo unspecified) [Granisetron]	active: 3.3
OC(CCN1CCCCC1)(c1ccccc1)C1CC2C=CC1C2 (stereo unspecified) [Biperiden]	active: 2.84
Cc1ncc([N+](=O)[O-])n1CCO [Metronidazole]	inactive: 2.05
CCN(Cc1ccncc1)C(=O)C(CO)c1ccccc1 (stereo unspecified) [Tropicamide]	active: 2.74
CCN1CCN(C(=O)N[C@@H](C(=O)N[C@@H]2C(=O)N3[C@@H]2SC(C)(C)[C@@H]3C(=O)O)c2ccccc2)C(=O)C1=O [Piperacillin Sodium]	active: 2.54
CCN1CCN(C(=O)N[C@@H](C(=O)N[C@@H]2C(=O)N3[C@@H]2SC(C)(C)[C@@H]3C(=O)O)c2ccccc2)C(=O)C1=O [Piperacillin]	inactive: 1.62
CC(=O)Oc1cccc(O)c1 [Resorcinol Monoacetate]	inactive: 2.25
CO[C@@H]1[C@@H](OC(N)=O)[C@@H](O)[C@H](Oc2ccc3c(O)c(NC(=O)c4ccc(O)c(CC=C(C)C)c4)c(=O)oc3c2C)OC1(C)C [Novobiocin Sodium]	inactive: 2.36
O=C(O[C@H]1CN2CCC1CC2)N1CCc2ccccc2[C@@H]1c1ccccc1 [Solifenacin Succinate]	active: 3.66
CN1CCCCC1CCN1c2ccccc2Sc2ccc([S+](C)[O-])cc21 (stereo unspecified) [Mesoridazine Besylate]	inactive: 2.47
CN1CCCC(n2nc(Cc3ccc(Cl)cc3)c3ccccc3c2=O)CC1 (stereo unspecified) [azelastine]	inactive: 2.42
O=C(CNC(=O)c1ccc(Cl)cc1)NO [Benurestat]	inactive: 1.44
CCCC(=O)Nc1ncnc2c1ncn2[C@@H]1O[C@@H]2COP(=O)(O)O[C@H]2[C@H]1OC(=O)CCC [Bucladesine]	inactive: 2.32
CC1=CC(=O)NS(=O)(=O)O1 [Acesulfame Potassium]	inactive: 1.41

SMILES	Mahalanobis distance
C=C1C[C@H]2[C@@H]3C=C(C)C4=CC(=O)CC[C@]4(C)[C@H]3CC[C@]2(C)[C@@]1(OC(C)=O)C(C)=O [Melengestrol Acetate]	active: 3.32
CC(=O)Oc1cccc2c1C(=O)c1c(OC(C)=O)cc(C(=O)O)cc1C2=O [Diacerin]	inactive: 1.44
N=C(N)NC(=N)N1CCOCC1 [Moroxydine Hydrochloride]	active: 4.07
COc1ccc(NS(=O)(=O)c2ccc(N)cc2)nn1 [Sulfamethoxypyridazine]	inactive: 2.18
Nc1ccc(C(=O)NCC(=O)O)cc1 [Aminohippuric Acid]	inactive: 2.11
CCC[C@H](N[C@@H](C)C(=O)N1[C@H](C(=O)O)C[C@@H]2CCCC[C@@H]21)C(=O)OCC [Perindopril Erbumine]	active: 3.39
N=C(N)NCC1COC2(CCCCC2)O1 (stereo unspecified) [Guanadrel Sulfate]	inactive: 1.54
CC1(C)OC(=O)NC1=O [Dimethadione]	inactive: 1.82
OCCN1CCN(CCCN2c3ccccc3Sc3ccc(Cl)cc32)CC1 [perphenazine]	inactive: 1.53
CN(C)CCc1c[nH]c2ccc(Cn3cncn3)cc12 [Rizatriptan Benzoate]	inactive: 2.29
Nc1ccc(S(=O)(=O)c2ccc(N)cc2)cc1 [Dapsone]	inactive: 2.25
CC[N+](C)(C)Cc1ccccc1Br [Bretylium Tosylate]	inactive: 1.82
Cc1onc(-c2c(Cl)cccc2Cl)c1C(=O)N[C@@H]1C(=O)N2[C@@H]1SC(C)(C)[C@@H]2C(=O)O [Dicloxacillin Sodium]	inactive: 1.77
CN1C(C)(C)CCCC1(C)C [Pempidine Tartrate]	inactive: 1.47
CC(CCc1ccccc1)NCC(O)c1ccc(O)c(C(N)=O)c1 (stereo unspecified) [Labetalol]	active: 2.5
CCOC(=O)[C@H](CCc1ccccc1)N[C@@H](C)C(=O)N1Cc2ccccc2C[C@H]1C(=O)O [Quinapril]	inactive: 1.59
O=C(O)c1cccnc1Nc1cccc(C(F)(F)F)c1 [Niflumic Acid]	inactive: 1.76
CC1CC(OC(=O)C(O)c2ccccc2)CC(C)(C)C1 (stereo unspecified) [Cyclandelate]	inactive: 2.47
CCCCCCc1ccc(O)cc1O.Nc1c2ccccc2nc2ccccc12 [Acrisorcin]	inactive: 2.25
CC1(C)S[C@@H]2[C@H](NC(=O)[C@H](NC(=O)N3CCNC3=O)c3ccccc3)C(=O)N2[C@H]1C(=O)O [Azlocillin]	active: 4.15
CC(C)c1ccc2oc3nc(N)c(C(=O)O)cc3c(=O)c2c1 [Amlexanox]	inactive: 1.07
NC(=O)c1cc[n+](CC2=C(C(=O)O)N3C(=O)[C@@H](NC(=O)[C@@H](c4ccccc4)S(=O)(=O)[O-])[C@H]3SC2)cc1 [Cefsulodin Sodium]	inactive: 1.9
